For assay [1], the target named is Flag-tagged mutant NMNAT1 (lysine to arginine, K56R) (mouse) (UniProt Q9EPA7). Put plainly: co-IP; Flag-tagged NMNAT1 (WT or K56R) immunoprecipitated from Hepa1.6 hepatocytes, Western blot of LSD1, SIRT1, SIRT7; cells with control siRNA or LSD1 siRNA (Figures 3G, 5C, 5D).
Assay [2] concerns the target Flag-tagged NMNAT1 (mouse) (UniProt Q9EPA7). The assay is described as above.

Amino acid sequences for entries named in this document (tags omitted). A change or cut given only in a name is not applied to a line headed by its entry.
UniProt Q9EPA7: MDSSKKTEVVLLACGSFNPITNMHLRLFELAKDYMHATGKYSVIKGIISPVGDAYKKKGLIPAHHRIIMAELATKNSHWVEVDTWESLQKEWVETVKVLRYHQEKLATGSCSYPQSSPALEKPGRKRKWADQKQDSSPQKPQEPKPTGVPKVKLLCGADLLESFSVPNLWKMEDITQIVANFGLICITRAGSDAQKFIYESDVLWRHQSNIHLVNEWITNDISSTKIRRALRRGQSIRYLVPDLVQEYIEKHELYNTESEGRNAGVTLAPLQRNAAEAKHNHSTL
UniProt Q8BKJ9: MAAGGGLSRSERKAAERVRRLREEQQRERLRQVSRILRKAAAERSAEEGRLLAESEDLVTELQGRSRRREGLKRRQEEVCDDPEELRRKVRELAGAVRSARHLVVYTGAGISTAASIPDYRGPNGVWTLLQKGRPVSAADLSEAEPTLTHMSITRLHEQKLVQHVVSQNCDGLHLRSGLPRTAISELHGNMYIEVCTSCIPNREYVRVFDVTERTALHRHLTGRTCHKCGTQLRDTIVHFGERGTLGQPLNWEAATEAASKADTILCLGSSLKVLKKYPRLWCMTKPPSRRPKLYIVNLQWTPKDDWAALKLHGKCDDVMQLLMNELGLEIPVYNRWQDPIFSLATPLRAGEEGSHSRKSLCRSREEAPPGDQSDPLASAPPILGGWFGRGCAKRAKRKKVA

These results are taken from publication PMC8492328.

Results are given in words; binding and its absence hold for the method and conditions named. Binding seen in cells or lysates may run through a third protein. Some binding calls cover weakened binding; strength is not graded here.

“SIRT7 (in hepatocytes) (from UniProt Q8BKJ9 1-402) (enzyme)”: the binding entry in assay [1] and in assay [2] was “binds” in each case.
